The list is a part of this screen's results and no random one: it is rich in T/C values a quarter to a half above the control, in often repeated tests (any T/C) and in doses without a T/C. Further doses and runs are listed elsewhere. T/C: endpoint of the treated group in % of that of the vehicle group. Some entries give survivors of the animals treated and no T/C: the source holds a T/C of zero for them, seemingly a mark for toxic or unscored doses. Some doses without a T/C left all or most animals alive at the check, yet need not have been tolerated: the source hardly ever lists a survival T/C far under the control, and the zero likely stands for such cases as well. Survivors were counted at the toxicity check, usually on the fifth day, unless a day is given; later deaths do not show. Schedule codes are those of the source, read here as Q, the interval in days (D) or hours (H), X, the number of doses. For survival time, the PubChem record calls one and a half times the control and up active, and a quarter to a half above the control has no call in these data; cut-offs in other NCI protocols can differ.
Test system: BDF1 mice, M5076 sarcoma s.c., survival/tumor T/C
Experiment: NCI In Vivo Anticancer Drug Screen. Data for tumor model Sarcoma M5076 (subcutaneous) in B6D2F1 (BDF1) mice
Protocol: The antitumor activity of compounds was measured in mice bearing transplantable tumors. Survival or tumor size were measured and the results are expressed as the measurement made in the treated group (T) divided by the measurement made in the vehicle treated control group (C). The tumor model used in this assay is Sarcoma M5076 (subcutaneous) in B6D2F1 (BDF1) mice

Structure (SMILES): CC(=O)[C@H]1CC[C@H]2[C@@H]3C[C@H](C)C4=CC(=O)CC[C@]4(C)[C@H]3C(=O)C[C@]12C
- survivor count (T/C endpoint: mean tumor weight, dose: 400.0 mg/kg/injection, schedule: Q02DX011 (ip), vehicle: Klucel (hydroxypropylcellulose) (HPC), higher T/C = larger tumour): 4 of 10 on day 22

Structure (SMILES): COc1cccc2c1C(=O)c1c(O)c3c(c(O)c1C2=O)C[C@@](O)(C(=O)CO)C[C@@H]3OC1CC(N)C(O)C(C)O1 (some centres undefined)
- survivor count (T/C endpoint: mean tumor weight, dose: 4.0 mg/kg/injection, schedule: Q02DX011 (ip), vehicle: saline, higher T/C = larger tumour): 3 of 10 on day 22
- survivor count (T/C endpoint: median survival time, dose: 1.3 mg/kg/injection, schedule: Q04DX004 (ip), vehicle: saline, higher T/C = longer survival): 8 of 8
- survivor count (T/C endpoint: median survival time, dose: 6.0 mg/kg/injection, schedule: Q04DX004 (ip), vehicle: saline, higher T/C = longer survival): 8 of 8
- T/C (T/C endpoint: median survival time, dose: 6.0 mg/kg/injection, schedule: Q04DX004 (iv), vehicle: saline, higher T/C = longer survival): 138 % of control
- survivor count (T/C endpoint: median survival time, dose: 6.7 mg/kg/injection, schedule: Q04DX003 (iv), vehicle: saline, higher T/C = longer survival): 4 of 10 on day 45
- survivor count (T/C endpoint: median survival time, dose: 10.0 mg/kg/injection, schedule: Q04DX003 (iv), vehicle: saline, higher T/C = longer survival): 2 of 10 on day 45
- survivor count (T/C endpoint: median survival time, dose: 10.0 mg/kg/injection, schedule: Q04DX004 (ip), vehicle: saline, higher T/C = longer survival): 7 of 8
- survivor count (T/C endpoint: median survival time, dose: 10.0 mg/kg/injection, schedule: Q04DX004 (iv), vehicle: saline, higher T/C = longer survival): 8 of 8
- survivor count (T/C endpoint: median tumor weight (est.), dose: 4.0 mg/kg/injection, schedule: Q02DX011 (ip), vehicle: saline, higher T/C = larger tumour): 3 of 10 on day 22

Structure (SMILES): O=C1C=CC(=O)N1c1ccc(-c2nc3ccccc3o2)cc1
- survivor count (T/C endpoint: median survival time, dose: 50.0 mg/kg/injection, schedule: Q01DX009 (ip), vehicle: saline with Tween-80, higher T/C = longer survival): 2 of 10 on day 9
- survivor count (T/C endpoint: median survival time, dose: 100.0 mg/kg/injection, schedule: Q01DX009 (ip), vehicle: saline with Tween-80, higher T/C = longer survival): 0 of 10 on day 9
- survivor count (T/C endpoint: median survival time, dose: 200.0 mg/kg/injection, schedule: Q01DX009 (ip), vehicle: saline with Tween-80, higher T/C = longer survival): 0 of 10 on day 9
- survivor count (T/C endpoint: median tumor weight (est.), dose: 50.0 mg/kg/injection, schedule: Q01DX009 (ip), vehicle: saline with Tween-80, higher T/C = larger tumour): 2 of 10 on day 20
- survivor count (T/C endpoint: median tumor weight (est.), dose: 100.0 mg/kg/injection, schedule: Q01DX009 (ip), vehicle: saline with Tween-80, higher T/C = larger tumour): 0 of 10 on day 20
- survivor count (T/C endpoint: median tumor weight (est.), dose: 200.0 mg/kg/injection, schedule: Q01DX009 (ip), vehicle: saline with Tween-80, higher T/C = larger tumour): 0 of 10 on day 20

Structure (SMILES): COc1cccc2c1C(=O)c1c(O)c3c(c(O)c1C2=O)C[C@@](O)(C(C)=O)C[C@@H]3OC1CC(N)C(O)C(C)O1 (some centres undefined)
- survivor count (T/C endpoint: median survival time, dose: 0.8 mg/kg/injection, schedule: Q04DX006 (ip), vehicle: saline, higher T/C = longer survival): 10 of 10 on day 16
- survivor count (T/C endpoint: median survival time, dose: 1.6 mg/kg/injection, schedule: Q04DX006 (ip), vehicle: saline, higher T/C = longer survival): 10 of 10 on day 16
- survivor count (T/C endpoint: median survival time, dose: 3.2 mg/kg/injection, schedule: Q02DX030 (ip), vehicle: saline, higher T/C = longer survival): 10 of 10 on day 16
- survivor count (T/C endpoint: median survival time, dose: 3.2 mg/kg/injection, schedule: Q04DX006 (ip), vehicle: saline, higher T/C = longer survival): 9 of 9 on day 16

Structure (SMILES): O=C(N/N=C\c1cc(Br)cc(Br)c1O)N/N=C/c1cc(Br)cc(Br)c1O
- survivor count (T/C endpoint: median survival time, dose: 1600.0 mg/kg/injection, schedule: Q04DX003 (ip), vehicle: saline with Tween-80, higher T/C = longer survival): 5 of 8

Structure (SMILES): O=C1c2ccccc2C(=O)c2c(NCCNCCO)ccc(NCCNCCO)c21
- survivor count (T/C endpoint: median survival time, dose: 36.0 mg/kg/injection, schedule: Q04DX004 (iv), vehicle: saline, higher T/C = longer survival): 4 of 8
- survivor count (T/C endpoint: median survival time, dose: 60.0 mg/kg/injection, schedule: Q04DX004 (ip), vehicle: saline, higher T/C = longer survival): 8 of 8
- survivor count (T/C endpoint: median survival time, dose: 60.0 mg/kg/injection, schedule: Q04DX004 (iv), vehicle: saline, higher T/C = longer survival): 0 of 8
